Test results: paper PMC6222128
No constants are given. Whether binding was seen depends on the method and setting. In cells and extracts the contact can be indirect. Binding can be weak; no strength is given. For some assays here: Where a sequence is shown, tags or fusion partners need not be part of it.

Experiments:
[1] = molecular target: T1, Myc-UPF1-G495R/G497E (ATPase/helicase mutant) (UniProt Q92900); test: co-IP; HEK293T transfected with Strep-tagged capsid and Myc-UPF1 (wild type or mutant), harvested at 48 hpt; immunoprecipitation with anti-Myc tag; blot for capsid
T1 sequence: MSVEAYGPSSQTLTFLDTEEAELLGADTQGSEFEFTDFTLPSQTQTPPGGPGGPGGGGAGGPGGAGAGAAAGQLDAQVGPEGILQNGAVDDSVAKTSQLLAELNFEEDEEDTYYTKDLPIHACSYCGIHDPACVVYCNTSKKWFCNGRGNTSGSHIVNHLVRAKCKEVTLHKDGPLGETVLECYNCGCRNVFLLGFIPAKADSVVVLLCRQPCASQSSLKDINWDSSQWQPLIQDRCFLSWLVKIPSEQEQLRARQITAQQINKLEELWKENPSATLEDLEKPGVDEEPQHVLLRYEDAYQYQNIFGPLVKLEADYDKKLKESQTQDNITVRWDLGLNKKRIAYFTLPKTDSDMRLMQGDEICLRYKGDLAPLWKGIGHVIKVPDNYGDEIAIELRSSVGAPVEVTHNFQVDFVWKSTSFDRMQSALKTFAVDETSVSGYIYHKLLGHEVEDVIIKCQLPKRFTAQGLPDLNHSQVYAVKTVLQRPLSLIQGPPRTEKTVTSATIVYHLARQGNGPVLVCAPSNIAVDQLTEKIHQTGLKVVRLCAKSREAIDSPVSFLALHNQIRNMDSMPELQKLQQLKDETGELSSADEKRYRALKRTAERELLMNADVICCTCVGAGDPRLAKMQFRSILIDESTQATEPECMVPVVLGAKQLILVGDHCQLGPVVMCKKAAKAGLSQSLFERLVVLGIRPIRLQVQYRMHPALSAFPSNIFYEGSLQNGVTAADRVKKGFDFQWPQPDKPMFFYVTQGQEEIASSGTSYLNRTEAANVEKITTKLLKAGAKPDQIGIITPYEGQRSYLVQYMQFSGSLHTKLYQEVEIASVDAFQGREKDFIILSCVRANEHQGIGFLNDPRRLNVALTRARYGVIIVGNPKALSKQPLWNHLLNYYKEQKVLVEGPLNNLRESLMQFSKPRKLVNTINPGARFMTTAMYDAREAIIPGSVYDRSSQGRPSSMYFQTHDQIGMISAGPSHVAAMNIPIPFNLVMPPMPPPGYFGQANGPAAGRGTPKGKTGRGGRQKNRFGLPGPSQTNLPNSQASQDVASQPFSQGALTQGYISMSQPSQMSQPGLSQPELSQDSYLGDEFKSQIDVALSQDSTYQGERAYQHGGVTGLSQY

Myc-UPF1 (wild type) = molecular target: T2, Myc-UPF1 (wild type) (UniProt Q92900); test: as above
T2 sequence: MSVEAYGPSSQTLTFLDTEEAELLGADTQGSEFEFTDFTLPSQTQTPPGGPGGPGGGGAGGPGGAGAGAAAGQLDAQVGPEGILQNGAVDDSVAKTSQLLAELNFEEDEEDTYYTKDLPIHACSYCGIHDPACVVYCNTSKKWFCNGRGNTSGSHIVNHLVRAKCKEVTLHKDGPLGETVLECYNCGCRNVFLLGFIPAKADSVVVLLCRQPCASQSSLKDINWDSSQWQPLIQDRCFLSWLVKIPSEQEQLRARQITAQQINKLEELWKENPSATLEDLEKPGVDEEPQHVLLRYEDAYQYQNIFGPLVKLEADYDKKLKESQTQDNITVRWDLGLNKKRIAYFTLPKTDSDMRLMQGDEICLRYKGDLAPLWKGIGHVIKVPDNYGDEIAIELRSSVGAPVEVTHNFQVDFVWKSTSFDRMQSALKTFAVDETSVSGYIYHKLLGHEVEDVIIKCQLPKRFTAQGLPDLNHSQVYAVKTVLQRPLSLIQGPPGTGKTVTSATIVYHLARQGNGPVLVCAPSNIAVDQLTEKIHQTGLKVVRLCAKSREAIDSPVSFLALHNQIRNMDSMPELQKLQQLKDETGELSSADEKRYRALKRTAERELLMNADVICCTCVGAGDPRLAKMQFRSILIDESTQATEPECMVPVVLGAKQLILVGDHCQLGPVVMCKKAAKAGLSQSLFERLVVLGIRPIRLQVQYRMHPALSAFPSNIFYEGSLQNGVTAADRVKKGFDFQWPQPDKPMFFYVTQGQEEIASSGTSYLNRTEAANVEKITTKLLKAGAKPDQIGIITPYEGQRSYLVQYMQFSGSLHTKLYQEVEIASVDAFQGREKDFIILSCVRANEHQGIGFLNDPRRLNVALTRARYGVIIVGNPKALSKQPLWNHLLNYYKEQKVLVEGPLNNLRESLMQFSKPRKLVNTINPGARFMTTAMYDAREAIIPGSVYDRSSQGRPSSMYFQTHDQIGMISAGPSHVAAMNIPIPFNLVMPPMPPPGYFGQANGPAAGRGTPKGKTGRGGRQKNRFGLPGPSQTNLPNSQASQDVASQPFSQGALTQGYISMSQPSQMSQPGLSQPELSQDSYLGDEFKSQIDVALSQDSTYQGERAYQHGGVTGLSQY

[2] = molecular target: T3, Myc-UPF1-C126S (RNA-binding mutant) (UniProt Q92900); test: as above
T3 sequence: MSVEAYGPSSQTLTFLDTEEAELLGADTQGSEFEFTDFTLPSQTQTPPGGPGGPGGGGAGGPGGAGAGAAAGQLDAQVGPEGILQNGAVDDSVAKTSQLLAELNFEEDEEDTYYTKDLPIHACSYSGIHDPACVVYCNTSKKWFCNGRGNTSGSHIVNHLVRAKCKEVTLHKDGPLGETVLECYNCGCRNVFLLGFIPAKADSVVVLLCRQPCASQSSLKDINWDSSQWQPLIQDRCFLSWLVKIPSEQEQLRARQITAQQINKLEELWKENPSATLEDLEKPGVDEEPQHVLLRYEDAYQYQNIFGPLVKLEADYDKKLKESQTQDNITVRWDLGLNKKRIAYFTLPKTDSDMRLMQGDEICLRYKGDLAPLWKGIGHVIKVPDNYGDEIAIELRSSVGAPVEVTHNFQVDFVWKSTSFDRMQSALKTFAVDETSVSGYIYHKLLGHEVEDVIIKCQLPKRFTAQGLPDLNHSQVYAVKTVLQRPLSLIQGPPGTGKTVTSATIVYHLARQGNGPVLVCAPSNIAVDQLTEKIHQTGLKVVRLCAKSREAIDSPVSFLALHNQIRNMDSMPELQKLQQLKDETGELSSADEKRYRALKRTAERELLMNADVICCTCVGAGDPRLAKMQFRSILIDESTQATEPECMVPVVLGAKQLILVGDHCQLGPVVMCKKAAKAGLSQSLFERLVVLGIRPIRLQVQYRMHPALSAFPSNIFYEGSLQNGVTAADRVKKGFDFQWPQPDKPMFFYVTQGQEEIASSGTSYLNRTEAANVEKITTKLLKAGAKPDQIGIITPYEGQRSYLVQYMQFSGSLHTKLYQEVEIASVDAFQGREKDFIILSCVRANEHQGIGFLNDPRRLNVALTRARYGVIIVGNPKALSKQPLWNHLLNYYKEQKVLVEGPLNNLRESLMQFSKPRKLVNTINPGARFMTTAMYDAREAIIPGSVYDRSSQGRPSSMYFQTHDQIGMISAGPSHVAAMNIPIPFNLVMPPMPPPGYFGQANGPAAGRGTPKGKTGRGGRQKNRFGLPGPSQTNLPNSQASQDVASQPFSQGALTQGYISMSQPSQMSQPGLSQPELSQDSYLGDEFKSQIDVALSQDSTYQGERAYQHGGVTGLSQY

[3] = molecular target: Flag-tagged ZIKV capsid (H/PF/2013, Asian lineage) (Zika virus (H/PF/2013, Asian lineage)); test: co-IP; HEK293T transfected with vector or Flag-tagged capsid, harvested at 48 hpt; RIPA or IP lysis buffer; Flag M2 agarose overnight; blots for endogenous UPF3B or UPF1

Molecule | binding [1] | binding (Myc-UPF1 (wild type)) | binding [2] | binding [3]
French Polynesian ZIKV capsid (H/PF/2013), C-terminal 2xStrep II tag | binds | binds | binds | 
UPF3B, endogenous (protein, UniProt Q9BZI7 1-483) MKEEKEHRPKEKRVTLLTPAGATGSGGGTSGDSSKGEDKQDRNKEKKEALSKVVIRRLPPTLTKEQLQEHLQPMPEHDYFEFFSNDTSLYPHMYARAYINFKNQEDIILFRDRFDGYVFLDNKGQEYPAIVEFAPFQKAAKKKTKKRDTKVGTIDDDPEYRKFLESYATDNEKMTSTPETLLEEIEAKNRELIAKKTTPLLSFLKNKQRMREEKREERRRREIERKRQREEERRKWKEEEKRKRKDIEKLKKIDRIPERDKLKDEPKIKVHRFLLQAVNQKNLLKKPEKGDEKELDKREKAKKLDKENLSDERASGQSCTLPKRSDSELKDEKPKRPEDESGRDYREREREYERDQERILRERERLKRQEEERRRQKERYEKEKTFKRKEEEMKKEKDTLRDKGKKAESTESIGSSEKTEKKEEVVKRDRIRNKDRPAMQLYQPGARSRNRLCPPDDSTKSGDSAAERKQESGISHRKEGGEE |  |  |  | binds
up-frameshift protein 1 (UPF1), endogenous (protein, UniProt Q92900 1-1129) MSVEAYGPSSQTLTFLDTEEAELLGADTQGSEFEFTDFTLPSQTQTPPGGPGGPGGGGAGGPGGAGAGAAAGQLDAQVGPEGILQNGAVDDSVAKTSQLLAELNFEEDEEDTYYTKDLPIHACSYCGIHDPACVVYCNTSKKWFCNGRGNTSGSHIVNHLVRAKCKEVTLHKDGPLGETVLECYNCGCRNVFLLGFIPAKADSVVVLLCRQPCASQSSLKDINWDSSQWQPLIQDRCFLSWLVKIPSEQEQLRARQITAQQINKLEELWKENPSATLEDLEKPGVDEEPQHVLLRYEDAYQYQNIFGPLVKLEADYDKKLKESQTQDNITVRWDLGLNKKRIAYFTLPKTDSGNEDLVIIWLRDMRLMQGDEICLRYKGDLAPLWKGIGHVIKVPDNYGDEIAIELRSSVGAPVEVTHNFQVDFVWKSTSFDRMQSALKTFAVDETSVSGYIYHKLLGHEVEDVIIKCQLPKRFTAQGLPDLNHSQVYAVKTVLQRPLSLIQGPPGTGKTVTSATIVYHLARQGNGPVLVCAPSNIAVDQLTEKIHQTGLKVVRLCAKSREAIDSPVSFLALHNQIRNMDSMPELQKLQQLKDETGELSSADEKRYRALKRTAERELLMNADVICCTCVGAGDPRLAKMQFRSILIDESTQATEPECMVPVVLGAKQLILVGDHCQLGPVVMCKKAAKAGLSQSLFERLVVLGIRPIRLQVQYRMHPALSAFPSNIFYEGSLQNGVTAADRVKKGFDFQWPQPDKPMFFYVTQGQEEIASSGTSYLNRTEAANVEKITTKLLKAGAKPDQIGIITPYEGQRSYLVQYMQFSGSLHTKLYQEVEIASVDAFQGREKDFIILSCVRANEHQGIGFLNDPRRLNVALTRARYGVIIVGNPKALSKQPLWNHLLNYYKEQKVLVEGPLNNLRESLMQFSKPRKLVNTINPGARFMTTAMYDAREAIIPGSVYDRSSQGRPSSMYFQTHDQIGMISAGPSHVAAMNIPIPFNLVMPPMPPPGYFGQANGPAAGRGTPKGKTGRGGRQKNRFGLPGPSQTNLPNSQASQDVASQPFSQGALTQGYISMSQPSQMSQPGLSQPELSQDSYLGDEFKSQIDVALSQDSTYQGERAYQHGGVTGLSQY |  |  |  | binds
